According to the supplement of paper PMC10849652:
The other results are listed elsewhere or left out.

Amino acid sequences for entries named in this document (tags omitted). A change or cut given only in a name is not applied to a line headed by its entry.
UniProt P61956, whole entry, looked up: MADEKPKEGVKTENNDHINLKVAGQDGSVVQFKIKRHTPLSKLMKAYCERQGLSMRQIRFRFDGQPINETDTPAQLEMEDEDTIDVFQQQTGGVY
UniProt O43815: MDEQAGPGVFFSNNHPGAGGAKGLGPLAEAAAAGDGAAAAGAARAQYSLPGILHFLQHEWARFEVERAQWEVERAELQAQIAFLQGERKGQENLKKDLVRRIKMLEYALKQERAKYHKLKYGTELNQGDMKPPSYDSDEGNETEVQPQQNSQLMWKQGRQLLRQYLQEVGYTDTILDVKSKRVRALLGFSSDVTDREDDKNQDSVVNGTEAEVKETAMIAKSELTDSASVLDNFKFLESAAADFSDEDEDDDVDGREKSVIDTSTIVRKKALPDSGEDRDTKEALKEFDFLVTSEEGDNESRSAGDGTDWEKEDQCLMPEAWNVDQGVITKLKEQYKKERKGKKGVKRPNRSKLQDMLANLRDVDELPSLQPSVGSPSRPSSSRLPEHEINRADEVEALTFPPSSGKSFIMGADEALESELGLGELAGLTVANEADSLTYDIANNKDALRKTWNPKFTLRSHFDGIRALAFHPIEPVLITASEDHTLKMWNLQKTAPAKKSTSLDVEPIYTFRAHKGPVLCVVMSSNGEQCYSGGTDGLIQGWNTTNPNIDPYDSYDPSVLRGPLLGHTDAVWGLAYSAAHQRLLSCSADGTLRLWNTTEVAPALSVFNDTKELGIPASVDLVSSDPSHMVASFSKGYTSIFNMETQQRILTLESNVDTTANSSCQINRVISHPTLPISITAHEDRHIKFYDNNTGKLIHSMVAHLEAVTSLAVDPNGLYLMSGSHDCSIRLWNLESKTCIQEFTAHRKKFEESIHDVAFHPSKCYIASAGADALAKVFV
UniProt Q8NHG7: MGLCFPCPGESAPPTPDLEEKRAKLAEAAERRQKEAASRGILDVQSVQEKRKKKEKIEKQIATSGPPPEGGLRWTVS
UniProt O00506, whole entry, looked up: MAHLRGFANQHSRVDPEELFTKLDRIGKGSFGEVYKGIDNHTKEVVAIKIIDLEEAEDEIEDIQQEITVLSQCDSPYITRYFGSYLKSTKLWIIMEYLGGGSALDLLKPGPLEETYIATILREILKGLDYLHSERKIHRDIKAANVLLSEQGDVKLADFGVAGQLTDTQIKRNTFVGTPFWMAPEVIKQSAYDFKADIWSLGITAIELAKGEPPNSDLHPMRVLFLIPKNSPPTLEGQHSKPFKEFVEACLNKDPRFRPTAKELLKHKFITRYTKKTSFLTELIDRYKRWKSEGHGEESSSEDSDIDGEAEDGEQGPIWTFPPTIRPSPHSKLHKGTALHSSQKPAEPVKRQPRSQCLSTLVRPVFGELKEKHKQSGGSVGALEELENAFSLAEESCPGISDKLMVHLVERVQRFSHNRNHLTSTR
UniProt O94864: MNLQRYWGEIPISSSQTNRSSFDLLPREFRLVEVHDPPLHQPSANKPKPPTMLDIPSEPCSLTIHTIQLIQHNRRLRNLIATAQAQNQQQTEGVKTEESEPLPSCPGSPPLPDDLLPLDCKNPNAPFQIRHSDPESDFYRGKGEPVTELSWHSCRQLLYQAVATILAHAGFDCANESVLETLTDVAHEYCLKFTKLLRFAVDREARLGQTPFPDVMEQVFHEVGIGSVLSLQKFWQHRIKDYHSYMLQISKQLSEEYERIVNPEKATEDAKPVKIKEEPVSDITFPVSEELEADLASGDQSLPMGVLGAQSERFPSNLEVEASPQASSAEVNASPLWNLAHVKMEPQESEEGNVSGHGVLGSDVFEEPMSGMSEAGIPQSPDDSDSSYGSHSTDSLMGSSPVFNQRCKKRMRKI
UniProt P50225: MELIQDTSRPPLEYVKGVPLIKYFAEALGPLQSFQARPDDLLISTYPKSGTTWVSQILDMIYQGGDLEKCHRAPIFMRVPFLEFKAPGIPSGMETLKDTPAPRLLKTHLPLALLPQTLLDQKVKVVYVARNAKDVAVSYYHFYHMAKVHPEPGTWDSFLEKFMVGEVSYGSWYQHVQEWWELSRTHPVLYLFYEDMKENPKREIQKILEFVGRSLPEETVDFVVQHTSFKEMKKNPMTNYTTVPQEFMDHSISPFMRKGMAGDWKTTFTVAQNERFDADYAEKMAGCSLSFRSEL
UniProt O60506: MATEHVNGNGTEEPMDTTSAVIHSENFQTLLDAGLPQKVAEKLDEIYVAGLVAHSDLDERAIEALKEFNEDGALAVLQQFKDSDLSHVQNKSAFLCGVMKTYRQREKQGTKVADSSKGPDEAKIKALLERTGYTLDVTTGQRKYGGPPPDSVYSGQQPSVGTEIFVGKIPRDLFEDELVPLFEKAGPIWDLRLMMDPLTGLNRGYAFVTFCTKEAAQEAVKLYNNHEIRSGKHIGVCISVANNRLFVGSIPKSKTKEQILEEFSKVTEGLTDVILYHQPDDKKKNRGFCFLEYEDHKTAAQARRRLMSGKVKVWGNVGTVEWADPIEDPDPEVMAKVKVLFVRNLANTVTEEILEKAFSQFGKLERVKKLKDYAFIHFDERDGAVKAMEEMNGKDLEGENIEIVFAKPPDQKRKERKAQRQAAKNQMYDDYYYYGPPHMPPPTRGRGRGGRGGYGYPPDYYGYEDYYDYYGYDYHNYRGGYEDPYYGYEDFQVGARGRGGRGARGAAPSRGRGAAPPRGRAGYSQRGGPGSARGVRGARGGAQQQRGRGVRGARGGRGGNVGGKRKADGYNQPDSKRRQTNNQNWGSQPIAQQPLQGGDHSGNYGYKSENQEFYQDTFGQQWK

What was measured:
Assay in all cases: log2 fold change, soluble protein after heating vs DMSO (PISA); higher = thermal stabilisation; K562 lysate, 10 uM; active = over 0.2 and 3.5 SD of the protein, either way, in both replicates (recomputed)
erlotinib = compound: C#Cc1cccc(Nc2ncnc3cc(OCCOC)c(OCCOC)cc23)c1 [erlotinib]
In short: (§1)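 Quantification was by TMTpro 16plex LC-MS/MS with equalised channel sums, applied to the supernatant after 21,000xg for 90 min. Samples were crude K562 extract at 1 mg/mL protein in PBS pH 7.4 with 1 mM MgCl2, treated with 10 μM compound for 30 min, heated for 3 min across 48°C-58°C, pooled and brought to 0.5% NP-40 at 4°C. Values are log-two fold changes in thermal stability relative to solvent controls, from duplicates.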

[1] = compound: C/C(=N\NC(=O)C1=CC(=CC=C1)S(=O)(=O)N2CCOCC2)/C3=C(C=CC(=C3)Cl)O
In short: as §1

[2] = compound: C1=CC(=CC=C1C2=NC3=C(N2)C=C(C=C3)C(=O)N)OC4=CC=C(C=C4)Cl
In short: as §1

[3] = compound: C1=CC2=C(C=CC(=C2)/C=C\3/C(=O)NC(=NCC4=CC=CS4)S3)N=C1
In short: as §1

[4] = compound: C1=CC2=NC=CN=C2C=C1/C=C/3\C(=O)NC(=O)S3
In short: as §1

[5] = compound: C1=CC=C(C=C1)C2=NC(=C(N2)C3=CC=NC=C3)C4=CC(=C(C=C4)Cl)O
In short: as §1

[6] = compound: C1=CC=C2C(=C1)C3=NNC4=CC=CC(=C43)C2=O
In short: as §1

[7] = compound: C1CCN(C1)C(=O)NC2=CC=CC(=C2)NC3=NC=C(C(=N3)NCCC4=CN=CN4)Br
In short: as §1

[8] = compound: C1CN(CCC1(CC2=CC=C(C=C2)Cl)N)C3=NC=NC4=C3C=CN4
In short: as §1

IRAK-1-4 Inhibitor I = compound: C1COCCN1CCN2C3=CC=CC=C3N=C2NC(=O)C4=CC(=CC=C4)[N+](=O)[O-] [IRAK-1-4 Inhibitor I]
In short: as §1

ibrutinib = compound: C=CC(=O)N1CCC[C@@H](n2nc(-c3ccc(Oc4ccccc4)cc3)c3c(N)ncnc32)C1 [ibrutinib]
In short: as §1

[9] = compound: CC(=O)c1cnc2ccc(-c3cc(Cl)c(O)c(Cl)c3)nc2c1N[C@H]1CC[C@H](CN(C)C)CC1
In short: as §1

ralimetinib = compound: CC(C)(C)Cn1c(N)nc2ccc(-c3[nH]c(C(C)(C)C)nc3-c3ccc(F)cc3)nc21 [ralimetinib]
In short: as §1

[10] = compound: CC(C)(O)CC(=O)NCCn1ccc2ncnc(Nc3ccc(Oc4cccc(C(F)(F)F)c4)c(Cl)c3)c21
In short: as §1

[11] = compound: CC(C)C1=C2N=C(C=C(N2N=C1)NCC3=CC=CC=C3)NCCCCCCN
In short: as §1

[12] = compound: CC1=C(C(CC(=O)N1)C2=CC=C(C=C2)C(F)(F)F)C(=O)NC3=C(C=C4C(=C3)C=NN4)F
In short: as §1

[13] = compound: CC1=C(C2=C(C=C1)C(=O)C3=CC=CC=C3N2CCCN)C
In short: as §1

[14] = compound: CC1=C(C=C(C=C1)NC(=O)C2=CC(=CC=C2)C(C)(C)C#N)NC3=CC4=C(C=C3)N=CN(C4=O)C
In short: as §1

[15] = compound: CC1=C(C=C(C=C1)NC(=O)C2=CC(=CC=C2)N(C)C)NC(=O)C3=CC=C(C=C3)O
In short: as §1

[16] = compound: CC1=CC=C(C=C1)SC2=C3C=C(SC3=CN=C2)C(=O)N
In short: as §1

Measured: log2 fold change

SUMO2 (UniProt P61956)
inactive: erlotinib -0.02 | [1] 0.071 | [2] 0.016 | [3] 0.047 | [4] -0.068 | [5] 0.02 | [6] 0.014 | [7] 0.057 | [8] 0.048 | IRAK-1-4 Inhibitor I -0.065 | ibrutinib 0.069 | [9] -0.02 | ralimetinib -0.066 | [10] 0.022 | [11] 0.034 | [12] -0.022 | [13] 0.048 | [14] 0.011 | [15] 0.085 | [16] -0.071

STRN (UniProt O43815)
inactive: erlotinib 0.018 | [1] -0.02 | [2] 0.014 | [3] 0.019 | [4] 0.007 | [5] -0.001 | [6] -0.023 | [7] -0.032 | [8] -0.006 | IRAK-1-4 Inhibitor I -0.015 | ibrutinib 0.041 | [9] -0.026 | ralimetinib 0.011 | [10] 0 | [11] -0.007 | [12] 0.004 | [13] 0.001 | [14] -0.016 | [15] -0.015 | [16] 0

SVIP (UniProt Q8NHG7)
inactive: erlotinib 0.037 | [1] 0.013 | [2] -0.004 | [3] -0.007 | [4] 0.001 | [5] 0.041 | [6] -0.012 | [7] 0.107 | [8] 0.057 | IRAK-1-4 Inhibitor I 0.001 | ibrutinib 0.088 | [9] -0.031 | ralimetinib 0.01 | [10] -0.062 | [11] -0.017 | [12] -0.029 | [13] -0.014 | [14] 0.075 | [15] 0.017 | [16] -0.019

STK25 (UniProt O00506)
active: [6] 0.317
inactive: erlotinib 0.037 | [1] -0.04 | [2] -0.038 | [3] 0.021 | [4] 0.012 | [5] 0.031 | [7] 0.052 | [8] -0.022 | IRAK-1-4 Inhibitor I -0.001 | ibrutinib -0.021 | [9] 0.165 | ralimetinib -0.071 | [10] 0.007 | [11] -0.006 | [12] -0.02 | [13] -0.038 | [14] -0.042 | [15] 0.035 | [16] -0.025

SUPT7L (UniProt O94864)
inactive: erlotinib -0.087 | [1] -0.003 | [2] -0.024 | [3] -0.037 | [4] -0.057 | [5] 0.113 | [6] -0.041 | [7] -0.086 | [8] -0.005 | IRAK-1-4 Inhibitor I 0.025 | ibrutinib -0.016 | [9] 0.045 | ralimetinib 0.01 | [10] -0.113 | [11] -0.117 | [12] -0.105 | [13] -0.035 | [14] 0.032 | [15] -0.07 | [16] -0.097

TACO1 (UniProt Q9BSH4)
inactive: erlotinib 0.019 | [1] 0.363 | [2] -0.008 | [3] -0.031 | [4] 0.007 | [5] -0.003 | [6] -0.013 | [7] -0.057 | [8] 0.026 | IRAK-1-4 Inhibitor I -0.009 | ibrutinib -0.02 | [9] 0.022 | ralimetinib 0.011 | [10] -0.007 | [11] 0.02 | [12] -0.028 | [13] -0.041 | [14] -0.045 | [15] 0.016 | [16] 0.038

SULT1A1 (UniProt P50225)
inactive: erlotinib -0.045 | [1] 0.08 | [2] -0.014 | [3] 0.069 | [4] 0.048 | [5] -0.011 | [6] -0.061 | [7] -0.026 | [8] 0.018 | IRAK-1-4 Inhibitor I -0.04 | ibrutinib 0.02 | [9] -0.027 | ralimetinib 0.028 | [10] -0.03 | [11] 0.03 | [12] -0.009 | [13] -0.06 | [14] 0.022 | [15] 0.047 | [16] 0.006

SYNCRIP (UniProt O60506)
inactive: erlotinib -0.018 | [1] -0.004 | [2] -0.019 | [3] 0.002 | [4] -0.018 | [5] 0.013 | [6] 0.02 | [7] 0.013 | [8] 0.005 | IRAK-1-4 Inhibitor I -0.008 | ibrutinib -0.004 | [9] -0.2 | ralimetinib -0.009 | [10] -0.004 | [11] -0.002 | [12] -0.015 | [13] -0.012 | [14] -0.036 | [15] 0.018 | [16] 0.018
